Values quoted from earlier work in US20070276024A1, “Methods for Treating Diseases and Conditions with Inverse Agonists and for Screening for Agents Acting as Inverse Agonists” (Inverseon , Inc., priority 2003, published 2007).

Conditions: after oral intake; cited from earlier work

CC(C)[N+]1(C)[C@@H]2CC[C@H]1C[C@@H](OC(=O)C(CO)c1ccccc1)C2 (stereo partly shown) [Ipratropium bromide]
time of peak plasma concentrations: 3 h
